The other results are listed elsewhere or left out.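 The calls were made as follows: active = dose-dependent thermal stabilisation significant by F-test of dose-response against flat model at 10% FDR; inactive = not significant.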
Compound: Nc1nc2c(ncn2[C@@H]2O[C@H](COP(=O)(O)OP(=O)(O)OP(=O)(O)O)[C@@H](O)[C@H]2O)c(=O)[nH]1
Assay: dose-dependent thermal stabilisation call (2D-TPP, DLPTP, 10% FDR) (binary (1 = stabilised)); higher = stabilised by the compound
Conditions: system: Jurkat gel-filtered lysate; concentration range 1-500 µM
Description: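 2D thermal proteome profiling in gel-filtered Jurkat E6.1 lysate (2 mg/ml) treated with NaGTP (0, 1, 10, 100, 500 uM) for 10 min at room temperature, then heated 3 min at one of 12 temperatures (42-63.9 C). Soluble protein was quantified by TMT10 MS. The value is the DLPTP call of the paper: dose-dependent thermal stabilisation over all temperatures at 10% FDR (F-test of a dose-response against a flat model); one experiment, one call per tested protein.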

Chains of the proteins cited; added tags and fusions are not shown. Lines headed by an entry give the natural chain unless they say otherwise; changes in a name come on top.
UniProt Q96AC1: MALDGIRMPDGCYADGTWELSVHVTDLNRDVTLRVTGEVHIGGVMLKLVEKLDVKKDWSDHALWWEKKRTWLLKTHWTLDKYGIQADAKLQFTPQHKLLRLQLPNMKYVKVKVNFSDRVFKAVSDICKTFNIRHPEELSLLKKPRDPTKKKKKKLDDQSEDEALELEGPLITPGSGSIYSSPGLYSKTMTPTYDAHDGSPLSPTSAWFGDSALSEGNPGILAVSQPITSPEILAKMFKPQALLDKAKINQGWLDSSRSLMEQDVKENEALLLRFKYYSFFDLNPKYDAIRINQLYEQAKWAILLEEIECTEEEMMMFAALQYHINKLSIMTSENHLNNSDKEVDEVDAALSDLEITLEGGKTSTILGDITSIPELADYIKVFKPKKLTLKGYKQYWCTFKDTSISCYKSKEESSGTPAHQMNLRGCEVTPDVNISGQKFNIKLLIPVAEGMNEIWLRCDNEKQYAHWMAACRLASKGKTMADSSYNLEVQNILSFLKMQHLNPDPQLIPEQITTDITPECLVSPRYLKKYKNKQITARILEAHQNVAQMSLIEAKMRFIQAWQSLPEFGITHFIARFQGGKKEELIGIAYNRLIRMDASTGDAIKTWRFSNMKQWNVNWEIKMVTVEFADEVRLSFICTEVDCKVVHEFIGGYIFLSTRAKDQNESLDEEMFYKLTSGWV
UniProt Q14320: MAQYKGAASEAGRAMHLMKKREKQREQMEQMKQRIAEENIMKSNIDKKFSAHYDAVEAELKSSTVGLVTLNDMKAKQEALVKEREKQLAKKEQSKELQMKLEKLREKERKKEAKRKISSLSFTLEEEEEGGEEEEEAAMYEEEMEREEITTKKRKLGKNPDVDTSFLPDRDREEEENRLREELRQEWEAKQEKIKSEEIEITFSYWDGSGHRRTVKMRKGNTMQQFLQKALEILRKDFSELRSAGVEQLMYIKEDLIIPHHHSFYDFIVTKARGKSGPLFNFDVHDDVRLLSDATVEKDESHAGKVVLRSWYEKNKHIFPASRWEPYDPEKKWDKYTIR
UniProt P14921: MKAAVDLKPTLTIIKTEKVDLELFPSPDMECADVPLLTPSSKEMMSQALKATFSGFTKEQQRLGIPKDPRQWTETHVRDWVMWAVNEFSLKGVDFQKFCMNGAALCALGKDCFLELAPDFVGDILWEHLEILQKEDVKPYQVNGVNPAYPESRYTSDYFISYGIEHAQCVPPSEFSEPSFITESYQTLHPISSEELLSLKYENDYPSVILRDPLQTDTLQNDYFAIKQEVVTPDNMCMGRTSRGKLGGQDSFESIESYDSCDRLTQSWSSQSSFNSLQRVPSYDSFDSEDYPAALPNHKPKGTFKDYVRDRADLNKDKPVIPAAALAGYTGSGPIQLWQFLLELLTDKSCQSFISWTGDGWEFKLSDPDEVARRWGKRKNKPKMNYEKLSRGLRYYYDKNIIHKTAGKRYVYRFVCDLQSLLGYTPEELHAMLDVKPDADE
UniProt Q9NVK5: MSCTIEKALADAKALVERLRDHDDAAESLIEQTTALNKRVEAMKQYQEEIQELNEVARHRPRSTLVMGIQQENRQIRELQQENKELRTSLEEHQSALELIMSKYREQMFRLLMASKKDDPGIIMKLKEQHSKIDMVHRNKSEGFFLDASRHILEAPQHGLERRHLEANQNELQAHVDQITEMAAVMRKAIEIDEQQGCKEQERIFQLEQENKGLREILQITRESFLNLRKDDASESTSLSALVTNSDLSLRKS
UniProt Q96C19: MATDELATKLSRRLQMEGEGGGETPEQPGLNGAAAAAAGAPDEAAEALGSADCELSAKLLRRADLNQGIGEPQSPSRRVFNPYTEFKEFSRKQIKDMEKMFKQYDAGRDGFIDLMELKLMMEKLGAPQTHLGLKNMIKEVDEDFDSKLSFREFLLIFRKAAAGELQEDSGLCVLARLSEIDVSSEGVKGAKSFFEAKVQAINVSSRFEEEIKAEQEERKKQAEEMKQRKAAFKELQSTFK
UniProt Q13347, whole entry: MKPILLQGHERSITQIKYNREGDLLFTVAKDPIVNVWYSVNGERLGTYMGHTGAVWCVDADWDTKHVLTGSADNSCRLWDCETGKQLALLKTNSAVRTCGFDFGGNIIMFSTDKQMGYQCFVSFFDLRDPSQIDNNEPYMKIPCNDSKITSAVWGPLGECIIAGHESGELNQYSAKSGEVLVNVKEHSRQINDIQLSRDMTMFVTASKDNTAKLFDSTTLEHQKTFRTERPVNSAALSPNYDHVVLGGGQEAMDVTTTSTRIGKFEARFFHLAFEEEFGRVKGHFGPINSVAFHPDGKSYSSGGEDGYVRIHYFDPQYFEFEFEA
UniProt Q9Y6I3: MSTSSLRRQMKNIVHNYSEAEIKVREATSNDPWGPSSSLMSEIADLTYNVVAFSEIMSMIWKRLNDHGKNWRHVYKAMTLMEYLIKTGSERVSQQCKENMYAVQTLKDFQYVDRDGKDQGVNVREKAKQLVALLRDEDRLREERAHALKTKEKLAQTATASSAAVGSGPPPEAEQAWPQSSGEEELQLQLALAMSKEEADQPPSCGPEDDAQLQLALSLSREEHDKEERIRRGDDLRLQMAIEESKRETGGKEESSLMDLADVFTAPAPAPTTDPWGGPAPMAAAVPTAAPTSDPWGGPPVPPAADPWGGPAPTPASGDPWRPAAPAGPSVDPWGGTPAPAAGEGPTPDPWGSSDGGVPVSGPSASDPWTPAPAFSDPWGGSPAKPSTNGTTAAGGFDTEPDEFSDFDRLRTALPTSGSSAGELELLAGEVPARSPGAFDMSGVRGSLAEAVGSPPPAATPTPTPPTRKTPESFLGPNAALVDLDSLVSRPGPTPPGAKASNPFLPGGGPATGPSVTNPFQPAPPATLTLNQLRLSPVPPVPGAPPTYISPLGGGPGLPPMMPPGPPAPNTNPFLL
UniProt Q9P2K8: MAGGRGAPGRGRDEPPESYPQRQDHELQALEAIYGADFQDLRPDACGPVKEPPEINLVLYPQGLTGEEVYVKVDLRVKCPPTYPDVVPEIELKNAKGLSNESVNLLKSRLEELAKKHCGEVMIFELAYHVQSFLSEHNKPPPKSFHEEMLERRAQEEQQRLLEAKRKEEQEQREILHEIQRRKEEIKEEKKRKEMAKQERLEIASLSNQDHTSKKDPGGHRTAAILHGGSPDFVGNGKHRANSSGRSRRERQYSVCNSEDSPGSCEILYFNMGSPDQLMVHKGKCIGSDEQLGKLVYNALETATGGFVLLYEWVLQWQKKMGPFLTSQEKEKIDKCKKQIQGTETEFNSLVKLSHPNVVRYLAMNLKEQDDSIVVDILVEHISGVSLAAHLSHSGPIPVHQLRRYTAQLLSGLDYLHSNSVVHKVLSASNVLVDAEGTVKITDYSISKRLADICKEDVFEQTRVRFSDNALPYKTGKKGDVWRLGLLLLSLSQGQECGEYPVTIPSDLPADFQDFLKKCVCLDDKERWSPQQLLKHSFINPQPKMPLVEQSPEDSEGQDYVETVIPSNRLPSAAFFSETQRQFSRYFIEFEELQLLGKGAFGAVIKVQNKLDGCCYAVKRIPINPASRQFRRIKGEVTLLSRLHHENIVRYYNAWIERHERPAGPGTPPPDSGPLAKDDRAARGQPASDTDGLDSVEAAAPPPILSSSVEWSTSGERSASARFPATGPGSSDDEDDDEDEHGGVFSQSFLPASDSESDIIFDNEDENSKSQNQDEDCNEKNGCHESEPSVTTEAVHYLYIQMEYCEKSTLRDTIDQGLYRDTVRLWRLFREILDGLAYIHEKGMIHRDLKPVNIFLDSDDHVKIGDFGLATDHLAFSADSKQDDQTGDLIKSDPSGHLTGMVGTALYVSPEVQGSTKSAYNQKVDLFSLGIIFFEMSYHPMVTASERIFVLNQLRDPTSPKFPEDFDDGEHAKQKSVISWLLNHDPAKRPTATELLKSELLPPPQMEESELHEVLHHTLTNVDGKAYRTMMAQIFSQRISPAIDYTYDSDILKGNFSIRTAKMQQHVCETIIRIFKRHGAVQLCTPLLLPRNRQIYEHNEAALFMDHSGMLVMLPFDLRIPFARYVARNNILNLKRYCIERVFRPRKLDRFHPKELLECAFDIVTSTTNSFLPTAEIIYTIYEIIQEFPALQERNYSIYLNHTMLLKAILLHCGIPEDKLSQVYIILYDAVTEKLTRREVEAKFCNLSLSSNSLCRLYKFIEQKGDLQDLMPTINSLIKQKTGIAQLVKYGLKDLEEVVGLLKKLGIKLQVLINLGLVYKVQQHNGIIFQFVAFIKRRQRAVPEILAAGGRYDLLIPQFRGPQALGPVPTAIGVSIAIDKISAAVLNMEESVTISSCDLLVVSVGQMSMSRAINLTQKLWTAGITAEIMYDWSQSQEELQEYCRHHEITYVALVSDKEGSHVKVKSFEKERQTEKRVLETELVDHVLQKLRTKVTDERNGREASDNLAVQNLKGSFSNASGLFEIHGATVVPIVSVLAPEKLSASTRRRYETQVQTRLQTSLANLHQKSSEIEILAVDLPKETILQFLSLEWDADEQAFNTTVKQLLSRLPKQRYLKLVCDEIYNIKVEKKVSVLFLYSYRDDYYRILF
UniProt Q9NY74: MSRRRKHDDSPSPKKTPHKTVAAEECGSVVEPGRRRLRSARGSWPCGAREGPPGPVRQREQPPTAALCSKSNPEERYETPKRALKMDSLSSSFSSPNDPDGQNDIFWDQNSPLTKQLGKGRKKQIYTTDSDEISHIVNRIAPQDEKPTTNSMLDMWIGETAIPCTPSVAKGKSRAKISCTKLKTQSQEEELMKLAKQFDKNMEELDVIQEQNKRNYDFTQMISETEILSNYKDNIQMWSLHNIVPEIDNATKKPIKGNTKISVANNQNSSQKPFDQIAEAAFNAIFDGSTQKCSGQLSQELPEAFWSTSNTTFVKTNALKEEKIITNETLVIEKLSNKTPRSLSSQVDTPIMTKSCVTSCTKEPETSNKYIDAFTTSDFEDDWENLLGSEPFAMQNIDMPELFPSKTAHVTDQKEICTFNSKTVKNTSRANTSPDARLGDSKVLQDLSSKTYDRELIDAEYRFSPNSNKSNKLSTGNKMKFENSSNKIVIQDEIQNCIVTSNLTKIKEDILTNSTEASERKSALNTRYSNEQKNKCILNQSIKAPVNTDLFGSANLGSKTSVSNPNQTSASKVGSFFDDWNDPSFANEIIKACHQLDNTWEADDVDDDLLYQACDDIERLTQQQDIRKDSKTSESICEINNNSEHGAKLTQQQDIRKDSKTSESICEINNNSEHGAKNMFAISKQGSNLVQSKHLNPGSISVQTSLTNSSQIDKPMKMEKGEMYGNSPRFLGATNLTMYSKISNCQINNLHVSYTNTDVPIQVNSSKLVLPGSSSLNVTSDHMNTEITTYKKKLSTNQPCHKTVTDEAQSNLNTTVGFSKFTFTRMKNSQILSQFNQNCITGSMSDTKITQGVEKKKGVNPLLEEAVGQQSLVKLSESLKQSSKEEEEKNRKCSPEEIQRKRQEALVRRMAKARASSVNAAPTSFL

| Target | dose-dependent thermal stabilisation call |
| --- | --- |
| FTO (UniProt Q9C0B1) | inactive: 0 |
| FAM76A (UniProt Q8TAV0) | inactive: 0 |
| EPN2 (UniProt O95208) | inactive: 0 |
| FERMT2 (UniProt Q96AC1) | inactive: 0 |
| FASN (UniProt P49327) | active: 1 |
| ELP5 (UniProt Q8TE02) | inactive: 0 |
| FAM50A (UniProt Q14320) | inactive: 0 |
| EHD4 (UniProt Q9H223) | active: 1 |
| FHL2 (UniProt Q14192) | inactive: 0 |
| EP300 (UniProt Q09472) | inactive: 0 |
| ETS1 (UniProt P14921) | inactive: 0 |
| EIF6 (UniProt P56537) | inactive: 0 |
| FIP1L1 (UniProt Q6UN15) | inactive: 0 |
| FXN (UniProt Q16595) | inactive: 0 |
| FBXO42 (UniProt Q6P3S6) | inactive: 0 |
| ERAP1 (UniProt Q9NZ08) | inactive: 0 |
| FAM103A1 (UniProt Q9BTL3) | inactive: 0 |
| FRG1 (UniProt Q14331) | inactive: 0 |
| FAM136A (UniProt Q96C01) | inactive: 0 |
| EIF5B (UniProt O60841) | active: 1 |

2 records drawn at random from the list so far:

| Target | dose-dependent thermal stabilisation call |
| --- | --- |
| FAM103A1 (UniProt Q9BTL3) | inactive: 0 |
| ELP5 (UniProt Q8TE02) | inactive: 0 |

Next entries

| Target | dose-dependent thermal stabilisation call |
| --- | --- |
| EHBP1L1 (UniProt Q8N3D4) | inactive: 0 |
| ESD (UniProt P10768) | inactive: 0 |
| EIF4G1 (UniProt Q04637) | inactive: 0 |
| FGFR1OP2 (UniProt Q9NVK5) | inactive: 0 |
| FAM53B (UniProt Q14153) | inactive: 0 |
| FAM171A2 (UniProt A8MVW0) | inactive: 0 |
| FAM122B (UniProt Q7Z309) | inactive: 0 |
| EYA3 (UniProt Q99504) | inactive: 0 |
| EIF3D (UniProt O15371) | inactive: 0 |
| EIF4H (UniProt Q15056) | inactive: 0 |
| EIF3CL (UniProt B5ME19) | inactive: 0 |
| EFHD2 (UniProt Q96C19) | inactive: 0 |
| EIF3A (UniProt Q14152) | inactive: 0 |
| EIF3I (UniProt Q13347) | inactive: 0 |
| EPN1 (UniProt Q9Y6I3) | inactive: 0 |
| FAM175A (UniProt Q6UWZ7) | inactive: 0 |
| EIF2AK4 (UniProt Q9P2K8) | inactive: 0 |
| FYN (UniProt P06241) | inactive: 0 |
| ETAA1 (UniProt Q9NY74) | inactive: 0 |
| EPB41L2 (UniProt O43491) | inactive: 0 |

From the supplement of paper PMC7666118
